Our source for the binding signal values is paper PMC7819943, “Rice protein-binding microarrays: a tool to detect cis-acting elements near promoter regions in rice”.

Sequences of proteins named here, by UniProt entry; tags and fusion partners are left off.
UniProt Q0JBA9, entry or part of it: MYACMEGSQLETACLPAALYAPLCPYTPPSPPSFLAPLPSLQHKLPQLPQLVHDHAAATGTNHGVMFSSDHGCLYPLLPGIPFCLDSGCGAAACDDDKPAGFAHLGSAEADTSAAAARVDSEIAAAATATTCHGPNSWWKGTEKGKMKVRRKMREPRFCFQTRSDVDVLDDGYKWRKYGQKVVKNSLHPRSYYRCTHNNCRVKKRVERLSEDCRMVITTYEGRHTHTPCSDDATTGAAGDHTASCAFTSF

The other results are listed elsewhere or left out.

The experiment deals with OsWRKY34 (Oryza sativa, UniProt Q0JBA9 1-250). Nature of the experiment: protein-binding microarray (RPBM); PBS, 2% BSA, 51.3 ng/ul salmon testes DNA, 50 uM zinc acetate, 200 nM TF, 25 C, 1 h; high values mean tight binding. The settings on record: protein: recombinant; tags: N-terminal polyhistidine and DsRed monomer fusion (pET32a); label: CyDye5-dUTP incorporated in the synthesized complementary strand; 3' TTTTT single-stranded linker to array surface; dsDNA, one strand shown. The essentials: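 The binding signal is fluorescence intensity per feature, in arbitrary units, read on an Axon 4000B scanner. Polyhistidine- and DsRed-tagged transcription factors (N-terminal fusions) from E. coli BL21-CodonPlus were purified on Ni–NTA and applied at 200 nM for 1 h at 25 °C to a double-stranded, BSA-blocked custom Agilent array in buffer with 50 µM zinc acetate.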
Take “ACCCCACCTGTCAGACAACCCCACCGCCGCTTCGCTTCACCGGAGTCACCTAGTGCAG”: the binding signal was 17300 fluorescence intensity (a.u.).
Under “GCAAGTTCAAAATCAACTTCTACATTGTTTTTTTCGTTGCCGGAGTCACCTAGTGCAG” stands 8970 fluorescence intensity (a.u.); under “AGGCTTTTGCTCGTCTTCCGAATTTCCGATCCACCTCGCGCGGAGTCACCTAGTGCAG”, 8770 fluorescence intensity (a.u.); under “ACTACCCCTGATCTGATCGCTAATTCGCTATGGTACCTCACGGAGTCACCTAGTGCAG”, 8630 fluorescence intensity (a.u.).
As for “TGAAGAGGTGAGTGTTTTAGGGTTTTGGTTGGGGTTTTGACGGAGTCACCTAGTGCAG”, the binding signal is 14600 fluorescence intensity (a.u.).
Under “CAGCTGCACAGGCGCAGGTGGGGATGGCAGGGGAGGGCAGCGGAGTCACCTAGTGCAG” stands 11300 fluorescence intensity (a.u.).
For the sequence “ATGGTGGCCGGTCTTTTTTCCTCTTCGCTCGATGCCAAAACGGAGTCACCTAGTGCAG”, the binding signal was 8270 fluorescence intensity (a.u.).
Under “AGGGATGGTTGGACTTATTTCTTTCGCGTTTTCCTTGGGTCGGAGTCACCTAGTGCAG” stands 10900 fluorescence intensity (a.u.).
Take “TGCCGCCGCCGCCACCTCCGCCGCTGTCCGCCGCCGGCGCCGGAGTCACCTAGTGCAG”: the binding signal was 11200 fluorescence intensity (a.u.).
On to “CACAGAGCTCTCGTTGACTTCATCCGTTCCCCTGCTCCTCCGGAGTCACCTAGTGCAG”, for which the binding signal is 8420 fluorescence intensity (a.u.).
Consider “TGTCTATAAATTGCGTCCTCGTCTTCATCTCCATCCAAACCGGAGTCACCTAGTGCAG”, for which the binding signal was 10300 fluorescence intensity (a.u.).
Under “CTCCCTCTGTTTCTAAATGTTTGACGTCGTTGATTTTTTTCGGAGTCACCTAGTGCAG” stands 8430 fluorescence intensity (a.u.); under “TTCCTTTTTCTATTTTTGGAATTTATTTTAATTTTTATTTCGGAGTCACCTAGTGCAG”, 8910 fluorescence intensity (a.u.).
For the sequence “TTCATTCCCGCGTATTCTCCTCATTCATCCTAGCTCTCGCCGGAGTCACCTAGTGCAG”, the binding signal was 15000 fluorescence intensity (a.u.).
For the sequence “TTGTGGGACGTGGGTCGGGGATGGATGGATAGGCAAGGCGCGGAGTCACCTAGTGCAG”, the binding signal is 9730 fluorescence intensity (a.u.).
Under “CTAGGGGCATTTTTTAAAATATTTTGTATTTAGTGAAGTACGGAGTCACCTAGTGCAG” stands 10100 fluorescence intensity (a.u.).
As for “CTGTTGTGTTGTGTTGTAATATGATTATGTGGGTGCTTATCGGAGTCACCTAGTGCAG”, the binding signal is 8390 fluorescence intensity (a.u.).
As for “CCCACCCACATCTGCCTGGCCCCACCTGCCGCCGTGCGGTCGGAGTCACCTAGTGCAG”, the binding signal was 8540 fluorescence intensity (a.u.).
As for “TCCAACGCTAGCTATATATCTAGCTATCTGTCTCCACATCCGGAGTCACCTAGTGCAG”, the binding signal was 9600 fluorescence intensity (a.u.).
As for “CGAGATTAGTTTAGTTGCTATCTTGTTTGTTCTCCCTTTGCGGAGTCACCTAGTGCAG”, the binding signal was 8170 fluorescence intensity (a.u.).
Next, “AGTTTCCACTCTTAAGGCAGTGTTCCGCGTGCACGTTTTTCGGAGTCACCTAGTGCAG”: 8980 fluorescence intensity (a.u.); “AATGTCAGGCTACTTCTGTCTTACACCAATCTCATCCCTACGGAGTCACCTAGTGCAG”: 9950 fluorescence intensity (a.u.).
“GTAATTGCCATTGCAACATCCTGGTCTTCATCCAATATTCCGGAGTCACCTAGTGCAG”: the binding signal is 8860 fluorescence intensity (a.u.).
Take “ACATCAGCAGGCACGCTCCACACATCTCGGTCCACTGAAGCGGAGTCACCTAGTGCAG”: the binding signal is 8100 fluorescence intensity (a.u.).
As for “GACTGATGAGCTTTAGGTGGGTCTAACTATTTTTTATTTACGGAGTCACCTAGTGCAG”, the binding signal was 9240 fluorescence intensity (a.u.).
On to “CCTCATCCGCGCCGCGCTCTCGCCCGCAATCGAGGCCGCCCGGAGTCACCTAGTGCAG”, for which the binding signal was 8100 fluorescence intensity (a.u.).
Turning to “TGGCTCTGCCACTACCTACTCCTTGACAAGTTTGTCCTCACGGAGTCACCTAGTGCAG”, the binding signal was 8090 fluorescence intensity (a.u.).
With “TGTTAAAGTTAATTAAGTTCATCCACAGTTTTTTTGACTTCGGAGTCACCTAGTGCAG”, the binding signal is 8220 fluorescence intensity (a.u.).
Next, “CCAAGAGCCGCCACTTCCGCTTCCGCCTCTGCCTCGTCCACGGAGTCACCTAGTGCAG”: 15000 fluorescence intensity (a.u.); “TTTGTTTGTGTTGAAAATATTTTTATGTTATATATATATACGGAGTCACCTAGTGCAG”: 8490 fluorescence intensity (a.u.).
Consider “ACACTTTCGCCTTTCTGACTTACACGCGCGTATATATACACGGAGTCACCTAGTGCAG”, for which the binding signal is 8080 fluorescence intensity (a.u.).
Next, “TTCTCCCTTGAACATAGTCCGTTGCTGAACCTCACGTTGACGGAGTCACCTAGTGCAG”: 8120 fluorescence intensity (a.u.); “GATGGACTGATGGTGAATTGGTGATCGGGTTGCTTGCTGGCGGAGTCACCTAGTGCAG”: 8860 fluorescence intensity (a.u.).
Under “TGGGGTTGGGTGGTGGTGGTGCGCACACAGCTAGCGAGGGCGGAGTCACCTAGTGCAG” stands 8760 fluorescence intensity (a.u.).
Consider “TCTATATTCTACTCAATGCTTGGTTCTAAATTGGCCTCAACGGAGTCACCTAGTGCAG”, for which the binding signal was 8320 fluorescence intensity (a.u.).
As for “ATATAAGGGATTTTGAGTTTTTGTTTGCAACGTTTGACCGCGGAGTCACCTAGTGCAG”, the binding signal is 11200 fluorescence intensity (a.u.).
“CCTCCTTGAGTTTAGTCACGATCCCCACCGTTGACCGAAGCGGAGTCACCTAGTGCAG”: the binding signal is 15600 fluorescence intensity (a.u.).
With “TGATTTTCTTTCTTTTACAATCAACTGATTTTCTTTCTTTCGGAGTCACCTAGTGCAG”, the binding signal is 11200 fluorescence intensity (a.u.).
Consider “AATTAGTTCCTGGACTTTGTGTATTACTAGTACTACTCCACGGAGTCACCTAGTGCAG”, for which the binding signal is 8570 fluorescence intensity (a.u.).
Take “TGAATTGGTTAGTCATATTTTCATTTGGCCAACCTCTCCACGGAGTCACCTAGTGCAG”: the binding signal was 8680 fluorescence intensity (a.u.).
Turning to “TATATATATATATATATATATATATATATATATAAGCGTCCGGAGTCACCTAGTGCAG”, the binding signal was 11300 fluorescence intensity (a.u.).
On to “GCCTTGACCTCCTCGTACGCCGCGCTCCGCTTCATCCTGCCGGAGTCACCTAGTGCAG”, for which the binding signal was 8240 fluorescence intensity (a.u.).
For “CGAATTCTCCTCTCAATTCAACCTGCCTCGATCTCGCTCTCGGAGTCACCTAGTGCAG”, the binding signal was 9830 fluorescence intensity (a.u.).
As for “TTAGGGAGCGTTTTTTCTTGCTTAATTCGCAGTTAATCTTCGGAGTCACCTAGTGCAG”, the binding signal is 9870 fluorescence intensity (a.u.).
Next, “TGGTTCATGGCCACACCACACTTTTGACTGCCACAGTGTGCGGAGTCACCTAGTGCAG”: 8420 fluorescence intensity (a.u.); “TTTGTCAGTCTGTCACTTACAAACTGCGTTTGAATGTTTCCGGAGTCACCTAGTGCAG”: 8960 fluorescence intensity (a.u.); “GACTTTAGTCAAAGTCATGTTGTTTCAAGTTTGACTAATTCGGAGTCACCTAGTGCAG”: 18800 fluorescence intensity (a.u.).
For the sequence “ACGCCGCACGCTGCTCTGCAAACGCCAACTTTCCTCTCTCCGGAGTCACCTAGTGCAG”, the binding signal is 8280 fluorescence intensity (a.u.).
In the case of “ACCACCAACCTGTCTGTCTCGTACTCTCGCTTCCGCTTCGCGGAGTCACCTAGTGCAG”, the binding signal was 13200 fluorescence intensity (a.u.).
Next, “TTGACAGCATCACCATATAATATTTTTGCATTAATAACTTCGGAGTCACCTAGTGCAG”: 10200 fluorescence intensity (a.u.); “GGGTTTTTATATATAGTTGGCATTTGCAAATGTTGAAATACGGAGTCACCTAGTGCAG”: 8670 fluorescence intensity (a.u.); “CAGCACAACCTTGTCGTCCTCGATCGCATCGCTCGCATCACGGAGTCACCTAGTGCAG”: 8950 fluorescence intensity (a.u.).
With “TCACTTTTCATGTACAAAACATGTTGATATTGTGGTTGGTCGGAGTCACCTAGTGCAG”, the binding signal is 8200 fluorescence intensity (a.u.).
For “ACCTTTGACAGCTCGAGCTCATGGCGGCTGCAGCCCTGCACGGAGTCACCTAGTGCAG”, the binding signal was 8030 fluorescence intensity (a.u.).
